Measured values published in patent US8138211B2, “Isothiazolyloxyphenylamidines and their use as fungicides” (Bayer Cropscience AG, priority 2009, dated 2012).
Some entries share one result that the patent states for a list of compounds. At least one compound was matched to its structure with a doubt left.

Tests used:
Format in all cases: in vivo
[1] = tested on: Sphaerotheca fuliginea; test: Sphaerotheca test (cucumber)/protective; details: active compound concentration of 500 ppm, protective, evaluation 7 days after inoculation
[2] = tested on: Puccinia recondita; test: Puccinia test (wheat)/protective; details: active compound concentration of 500 ppm, protective, evaluation 7-9 days after inoculation
[3] = tested on: Botrytis cinerea; test: Botrytis test (bean)/protective; details: active compound concentration of 250 ppm, protective, evaluation two days after inoculation
[4] = tested on: Uromyces appendiculatus; test: Uromyces test (bean)/protective; details: active compound concentration of 10 ppm, protective, evaluation 10 days after inoculation
[5] = tested on: Pyrenophora teres; test: Pyrenophora teres test (barley)/protective; details: active compound concentration of 500 ppm, protective, evaluation 8 days after inoculation
[6] = tested on: Septoria tritici; test: Septoria tritici test (wheat)/protective; details: active compound concentration of 500 ppm, protective, evaluation 21 days after inoculation

Measured: efficacy

CCCN(C)C=Nc1cc(C)c(Oc2snc(-c3cccc(C)c3)c2C#N)cc1C [compound 26]
not listed: [6]
≥ 70%: all other assays above

CCN(C)C=Nc1cc(Cl)c(Oc2snc(-c3ccc(F)cc3)c2C#N)cc1C [compound 37]
≥ 70%: all assays above

CCN(C)C=Nc1cc(Cl)c(Oc2snc(-c3cccc(C)c3)c2C#N)cc1C [compound 40]
not listed: [6]
≥ 70%: all other assays above

CCN(C)C=Nc1cc(C)c(Oc2snc(-c3ccc(F)cc3)c2C#N)cc1Cl [compound 58]
≥ 70%: all assays above

Cc1cc(Oc2snc(-c3ccccc3C)c2C#N)c(C)cc1N=CN(C)C [compound 79]
≥ 70%: all assays above

CCN(C)C=Nc1cc(C)c(Oc2snc(-c3cccc(F)c3)c2C#N)cc1Cl [compound 89]
≥ 70%: all assays above

CCN(C)C=Nc1cc(Cl)c(Oc2snc(-c3ccccc3C)c2C#N)cc1C [compound 95]
≥ 70%: all assays above

Cc1cc(Oc2snc(C3(Cl)CC3)c2C#N)c(C)cc1N=CN(C)C(C)C [compound 101]
≥ 70%: all assays above

Cc1cc(N=CN(C)C(C)C)c(Cl)cc1Oc1snc(-c2cccc(F)c2)c1C#N [compound 105]
≥ 70%: all assays above

Cc1cc(Oc2snc(CC(C)(C)C)c2C#N)c(Cl)cc1N=CN(C)C(C)C [compound 112]
≥ 70%: all assays above

CCN(C)C=Nc1cc(Cl)c(Oc2snc(CC(C)(C)C)c2C#N)cc1C [compound 113]
≥ 70%: all assays above

Cc1cc(N=CN(C)C(C)C)c(Cl)cc1Oc1snc(-c2ccccc2C)c1C#N [compound 116]
≥ 70%: all assays above

CCN(C)C=Nc1cc(C)c(Oc2snc(-c3ccccc3Cl)c2C#N)cc1C [compound 125]
≥ 70%: all assays above

CCN(C)C=Nc1cc(C)c(Oc2snc(-c3ccccc3F)c2C#N)cc1C [compound 129]
≥ 70%: all assays above

CCN(C)C=Nc1cc(Cl)c(Oc2snc(-c3cccc(F)c3)c2C#N)cc1C [compound 130]
≥ 70%: all assays above

CCN(C)C=Nc1cc(Cl)c(Oc2snc(-c3ccccc3Cl)c2C#N)cc1C [compound 132]
not listed: [6]
≥ 70%: all other assays above

CCN(C)C=Nc1cc(Cl)c(Oc2snc(-c3ccccc3F)c2C#N)cc1C [compound 139]
≥ 70%: all assays above

CCN(C)C=Nc1cc(Cl)c(Oc2snc(C3(Cl)CC3)c2C#N)cc1C [compound 153]
≥ 70%: all assays above

Cc1cc(Oc2snc(C(C)(C)C(C)C)c2C#N)c(C)cc1N=CN(C)C(C)C [compound 165]
≥ 70%: [3] | [4] | [6] | [5]

Cc1cc(Oc2snc(C3(C)CC3)c2C#N)c(C)cc1N=CN(C)C(C)C [compound 178]
≥ 70%: [3] | [4] | [6] | [5]

CCC(C)(C)c1nsc(Oc2cc(C)c(N=CN(C)C(C)C)cc2C)c1C#N [compound 180]
≥ 70%: [3] | [4] | [6] | [5]

CCC(C)(C)c1nsc(Oc2cc(C)c(N=CN(C)C)cc2C)c1C#N [compound 183]
≥ 70%: [3] | [4] | [6] | [5]

CCN(C)C=Nc1cc(Cl)c(Oc2snc(C(C)(CC)CC)c2C#N)cc1C [compound 186]
≥ 70%: [3] | [4] | [6] | [5]

CCC(C)(CC)c1nsc(Oc2cc(C)c(N=CN(C)C)cc2C)c1C#N [compound 188]
≥ 70%: [3] | [4] | [6] | [5]

CCC(C)(CC)c1nsc(Oc2cc(C)c(N=CN(C)C(C)C)cc2C)c1C#N [compound 190]
≥ 70%: all assays above

CCN(C)C=Nc1cc(C)c(Oc2snc(Cc3ccc(Cl)cc3)c2C#N)cc1Cl [compound 191]
not listed: [5]
≥ 70%: all other assays above

Cc1cc(Oc2snc(C3(C)CCCCC3)c2C#N)c(C)cc1N=CN(C)C [compound 197]
≥ 70%: [3] | [4] | [6] | [5]

Cc1cc(Oc2snc(C3(C)CCCCC3)c2C#N)c(C)cc1N=CN(C)C(C)C [compound 198]
≥ 70%: [3] | [4] | [6] | [5]

CCC(C)(C)c1nsc(Oc2cc(C)c(N=CN(C)C(C)C)cc2Cl)c1C#N [compound 200]
≥ 70%: [3] | [4] | [6] | [5]

CCC(C)(C)c1nsc(Oc2cc(C)c(N=CN(C)C)cc2Cl)c1C#N [compound 201]
≥ 70%: [3] | [4] | [5]

CCN(C)C=Nc1cc(C)c(Oc2snc(C34CC5CC(CC(C5)C3)C4)c2C#N)cc1C [compound 208]
not listed: [5]
≥ 70%: all other assays above

Cc1cc(Oc2snc(C34CC5CC(CC(C5)C3)C4)c2C#N)c(C)cc1N=CN(C)C(C)C [compound 209]
not listed: [5]
≥ 70%: all other assays above

Cc1cc(Oc2snc(-c3ccc(Cl)cc3Cl)c2C#N)c(C)cc1N=CN(C)C(C)C [compound 212]
not listed: [5]
≥ 70%: all other assays above

Cc1cc(Oc2snc(C34CC5CC(CC(C5)C3)C4)c2C#N)c(C)cc1N=CN(C)C [compound 213]
not listed: [5]
≥ 70%: all other assays above

Cc1cc(N=CN(C)C(C)C)c(Cl)cc1Oc1snc(C(C)C)c1C#N [compound 227]
not listed: [5]
≥ 70%: all other assays above

CCN(C)C=Nc1cc(C)c(Oc2snc(C(C)C)c2C#N)cc1Cl [compound 228]
not listed: [6]
≥ 70%: all other assays above

CCN(C)C=Nc1cc(Cl)c(Oc2snc(C(C)(C)F)c2C#N)cc1C [compound 231]
not listed: [6]
≥ 70%: all other assays above

CCN(C)C=Nc1cc(Cl)c(Oc2snc(-c3ccc(F)cc3Cl)c2C#N)cc1C [compound 243]
not listed: [6]
≥ 70%: all other assays above
